For part of these data: Some peptides are written in HELM: one residue between dots, names in brackets for other building blocks, links after the first $.
How the values were obtained:
[1] = peptide synthesis; conditions: whole synthesis, 220 nm
[2] = system: T lymphocytes; experiment: Entry of FITC-labelled fusion protein and polypeptide into T lymphocytes, confocal microscopy; format: cell-based

PEPTIDE1{L.V.F.D.G.P.H.S.Q.S.E.R.V.P.P.R.R.R.Q.R.R.K.K.R.G.Y}$$$$V2.0
purity (crude or final not stated) [1]: 98.1%

PEPTIDE1{Y.G.R.K.K.R.R.Q.R.R.R.P.P.V.R.E.S.Q.S.H.P.G.D.F.V.L}$$$$V2.0
purity (crude or final not stated) [1]: 96.74%

PEPTIDE1{[dL].[dV].[dF].[dD].G.[dP].[dH].[dS].[dQ].[dS].[dE].[dR].[dV].[dP].[dP].[dR].[dR].[dR].[dQ].[dR].[dR].[dK].[dK].[dR].G.[dY]}$$$$V2.0
purity (crude or final not stated) [1]: 96.66%

PEPTIDE1{[dY].G.[dR].[dK].[dK].[dR].[dR].[dQ].[dR].[dR].[dR].[dP].[dP].[dV].[dR].[dE].[dS].[dQ].[dS].[dH].[dP].G.[dD].[dF].[dV].[dL]}$$$$V2.0
purity (crude or final not stated) [1]: 99.27%

B1: TAT-SHP2-N-SH2 fusion protein: TAT penetrating peptide connected to N-terminal SH2 domain of SHP2 through glycine and serine (TAT-Gly-Ser-N-SH2); SEQ ID NO.:4 (protein)
chain: YGRKKRRQRRRGSRWFHPNITGVEAENLLLTRGVDGSFLARPSKSNPGDFTLSVRRNGAVTHIKIQNTGDYYDLYGGEKFATLAELVQYYMEHHGQLKEKNGDVIELKYPLN
modifications: the fusion protein
time until which the signal in T cells gradually weakened [2]: 120 h
time within which most of the substance enters T cells [2]: ≤ 24 h
